PubChem BioAssay AID1259308, NCATS, 2017
Test: 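Knock-downs that increase output of a recombinant reporter protein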 (primary screen). Cells: human HEK293 embryonic kidney cells stably expressing firefly luciferase (HEK-CMV-Luc2-Hygro). Knock-down reagent: single siRNA against human genes, 0.8 pmol siRNA per well. Time to read-out: 72 h. Measured: 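Luciferase light (ONE-Glo) measured on one replicate plate set and viability (CellTiter-Glo) on the other, scaled to a negative control siRNA, with robust z-scores and luciferase per cell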. Scale: total luciferase, z-score: higher = more reporter protein produced. Rule for the call: 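An siRNA counts as active if its total luciferase robust z-score exceeds 3; genes with two or more such siRNAs out of three were retested with fresh siRNAs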. Calls: active = raised luciferase; inactive = no rise.
This is a random part of about 59,000 reagents tested. About 1,510 of all reagents (2.6%) were called active. 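Calls use total luciferase alone and ignore viability, so some active siRNAs may act by altering cell number.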 Further read-outs or replicates are left out here. No sequences are given here.

RNF157 [SID160755021] showed total luciferase, z-score -0.237; inactive.
After knock-down of RNF157 [SID160755022], the record shows total luciferase, z-score 0.127; inactive.
Against RNF157 [SID160755023] the deposit lists total luciferase, z-score -0.119; inactive.
Knock-down of C16orf78 [SID160756129] came out at: total luciferase, z-score -0.694; inactive.
For C16orf78 [SID160756130], the entry reads total luciferase, z-score -0.417; inactive.
Silencing of C16orf78 [SID160756131] came out at: total luciferase, z-score -0.706; inactive.

2 of these entries, reformatted.
gene,PubChem SID,"total luciferase, z-score",Outcome
RNF157,SID160755023,-0.119,inactive
C16orf78,SID160756129,-0.694,inactive

Additional results:
Silencing of SESN1 [SID160738594] resulted in: total luciferase, z-score 1.03; inactive.
SESN1 [SID160738595] scored total luciferase, z-score -0.295; inactive.
For SESN1 [SID160738596], the values are total luciferase, z-score 0.322; inactive.
RPL31P13 [SID160733813] showed total luciferase, z-score 0.376; inactive.
With knock-down of RPL31P13 [SID160768843], the record shows total luciferase, z-score 0.613; inactive.
RPL31P13 [SID160768844] gave total luciferase, z-score -0.768; inactive.
